Taken from: PubChem BioAssay AID602196 (INSERM, 2012)

- Assay: 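Knock-downs that protect lung cancer cells from cisplatin or sensitise them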
- System: human A549 lung cancer cells
- Reagent: siRNA pair against human genes
- Timing: 48 h transfection before cisplatin; time from cisplatin to read-out not stated
- Conditions: cisplatin at a dose killing half of control-siRNA cells; exact dose and duration not given
- Measured: 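Cisplatin cell death as a shift from the 50% death seen with control siRNA; siRNAs toxic or growth-blocking alone scored 0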
- Scale: two-siRNA summed score (-2 to +2): higher = both siRNAs protect from cisplatin killing; -2 means both sensitise
- Rule for the call: 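Each siRNA scores 0 if harmful alone by LDH or WST-1, otherwise +1 if it reduces and -1 if it increases cisplatin killing; a gene is active when both siRNAs agree (sum +2 or -2)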
- Calls: active = both siRNAs shift cisplatin killing the same way; inactive = no consistent shift, or siRNA harmful alone
The whole screen tested about 23,000 reagents; this is a part drawn at random. 455 of them (2%) were called active. 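Active includes both protection and sensitisation; some change values fall well beyond the stated -50 to +50 range.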 Entries without a mark were called inactive. Further read-outs or replicates are left out here. Not given: the amount of reagent.

PAPOLB
- two-siRNA summed score (-2 to +2): 0

ATP2A2
- two-siRNA summed score (-2 to +2): 1

ST3GAL1
- two-siRNA summed score (-2 to +2): 0

LOC402184
- two-siRNA summed score (-2 to +2): 1

KIAA0565
- two-siRNA summed score (-2 to +2): 1

TAS2R31
- two-siRNA summed score (-2 to +2): 0

TUBA3E
- two-siRNA summed score (-2 to +2): 1

OR10Q1
- two-siRNA summed score (-2 to +2): 0

TOE1
- two-siRNA summed score (-2 to +2): 1

F3
- two-siRNA summed score (-2 to +2): -1

PKD1L1
- two-siRNA summed score (-2 to +2): 1

LOC286348
- two-siRNA summed score (-2 to +2): 0

MTX1
- two-siRNA summed score (-2 to +2): 1

LOC440390
- two-siRNA summed score (-2 to +2): 0

OR1L3
- two-siRNA summed score (-2 to +2): 0

RRP15
- two-siRNA summed score (-2 to +2): 0

JMJD4
- two-siRNA summed score (-2 to +2): 0

PHLPP2
- two-siRNA summed score (-2 to +2): 0

ZGPAT
- two-siRNA summed score (-2 to +2): 0

PRSS50
- two-siRNA summed score (-2 to +2): 0

SEC61B
- two-siRNA summed score (-2 to +2): 0

LOC441388
- two-siRNA summed score (-2 to +2): 0

C20orf202
- two-siRNA summed score (-2 to +2): 1

CBLC
- two-siRNA summed score (-2 to +2): -1

LOC401944
- two-siRNA summed score (-2 to +2): 0

ADH4
- two-siRNA summed score (-2 to +2): 0

COPS8
- two-siRNA summed score (-2 to +2): -1

RNF126
- two-siRNA summed score (-2 to +2): 0

LOC344178
- two-siRNA summed score (-2 to +2): 0

INSL6
- two-siRNA summed score (-2 to +2): 1

LOC341457
- two-siRNA summed score (-2 to +2): 0

2 entries from above, arranged by “two-siRNA summed score (-2 to +2)”, high to low.
TUBA3E
- two-siRNA summed score (-2 to +2): 1

OR10Q1
- two-siRNA summed score (-2 to +2): 0
